Experimental data reported in paper PMC8336496.
These are yes or no findings as the source states them, for the method shown. In cells and extracts the contact can be indirect. Some entries that bind do so weakly or less than the wild type. Sequences can lack the tags named with a protein.

Target: T1, His-tagged translocation-associated membrane protein 2 (TRAM2) (UniProt Q924Z5)
T1 sequence: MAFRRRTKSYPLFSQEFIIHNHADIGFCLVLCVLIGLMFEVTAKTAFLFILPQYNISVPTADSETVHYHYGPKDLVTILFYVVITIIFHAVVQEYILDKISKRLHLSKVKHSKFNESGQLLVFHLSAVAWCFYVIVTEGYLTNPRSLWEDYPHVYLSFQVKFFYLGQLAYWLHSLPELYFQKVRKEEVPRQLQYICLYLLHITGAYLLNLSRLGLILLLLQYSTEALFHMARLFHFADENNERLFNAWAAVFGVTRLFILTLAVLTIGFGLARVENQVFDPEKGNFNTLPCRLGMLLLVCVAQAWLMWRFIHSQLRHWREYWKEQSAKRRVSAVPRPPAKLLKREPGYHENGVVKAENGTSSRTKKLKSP
Assay: co-IP; His antibody precipitates N-terminally His-tagged TRAM2 from transfected BMSCs; blots for endogenous SERCA2b and Col1; cells treated with Ion, TG, FT011 or FT011 plus Lv-Col1

sarcoplasmic/endoplasmic reticulum calcium ATPase 2b (SERCA2b) (from UniProt O55143-1 1-1044)
binding: binds
